Data published in patent US20230135877A1 (Arizona Board of Regents on Behalf of the University of …, priority 2020, published 2023).

Test: peptide made by a vendor
Settings: whole synthesis

Sequence | purity (crude or final not stated) [%]
KEQCVEMYTD [10-mer] | 98.8
PAGRGKEQCVEMYTDGQWND | 98.0

Where a sequence shows no end group, the ends are not given.
